We go through 4 molecules from patent US20210023171A1 (published 2021).

The chains behind the UniProt entries cited, without tags or fusion partners. Where a name states a change or a piece, a line headed by the entry shows the natural chain unless it says otherwise.
UniProt P06756: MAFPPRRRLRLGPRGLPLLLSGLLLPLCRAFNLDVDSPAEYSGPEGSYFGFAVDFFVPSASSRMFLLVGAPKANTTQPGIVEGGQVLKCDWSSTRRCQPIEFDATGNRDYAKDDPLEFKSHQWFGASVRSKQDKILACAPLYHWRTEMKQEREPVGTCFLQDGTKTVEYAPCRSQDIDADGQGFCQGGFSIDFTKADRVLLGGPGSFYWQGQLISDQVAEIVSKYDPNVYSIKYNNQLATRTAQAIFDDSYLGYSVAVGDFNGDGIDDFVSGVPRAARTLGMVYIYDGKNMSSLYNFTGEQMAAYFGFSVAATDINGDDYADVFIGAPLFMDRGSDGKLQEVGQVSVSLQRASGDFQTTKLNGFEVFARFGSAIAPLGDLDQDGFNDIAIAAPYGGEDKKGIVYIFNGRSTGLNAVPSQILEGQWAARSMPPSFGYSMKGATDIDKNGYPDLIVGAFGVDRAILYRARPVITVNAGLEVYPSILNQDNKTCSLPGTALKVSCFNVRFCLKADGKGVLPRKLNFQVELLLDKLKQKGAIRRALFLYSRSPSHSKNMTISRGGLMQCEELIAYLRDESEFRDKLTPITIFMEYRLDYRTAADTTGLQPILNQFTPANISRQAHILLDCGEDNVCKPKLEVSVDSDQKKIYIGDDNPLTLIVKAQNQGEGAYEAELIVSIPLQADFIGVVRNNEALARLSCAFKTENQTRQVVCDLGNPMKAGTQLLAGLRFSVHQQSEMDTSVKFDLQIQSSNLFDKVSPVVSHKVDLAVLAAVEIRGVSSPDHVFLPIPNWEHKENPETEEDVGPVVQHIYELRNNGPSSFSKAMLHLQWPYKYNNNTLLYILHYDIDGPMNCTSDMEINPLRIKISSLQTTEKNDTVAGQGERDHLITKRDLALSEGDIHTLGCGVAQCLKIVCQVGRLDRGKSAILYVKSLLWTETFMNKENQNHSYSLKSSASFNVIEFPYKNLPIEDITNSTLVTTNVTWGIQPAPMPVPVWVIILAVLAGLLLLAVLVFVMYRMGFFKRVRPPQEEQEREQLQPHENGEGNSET
UniProt P08648: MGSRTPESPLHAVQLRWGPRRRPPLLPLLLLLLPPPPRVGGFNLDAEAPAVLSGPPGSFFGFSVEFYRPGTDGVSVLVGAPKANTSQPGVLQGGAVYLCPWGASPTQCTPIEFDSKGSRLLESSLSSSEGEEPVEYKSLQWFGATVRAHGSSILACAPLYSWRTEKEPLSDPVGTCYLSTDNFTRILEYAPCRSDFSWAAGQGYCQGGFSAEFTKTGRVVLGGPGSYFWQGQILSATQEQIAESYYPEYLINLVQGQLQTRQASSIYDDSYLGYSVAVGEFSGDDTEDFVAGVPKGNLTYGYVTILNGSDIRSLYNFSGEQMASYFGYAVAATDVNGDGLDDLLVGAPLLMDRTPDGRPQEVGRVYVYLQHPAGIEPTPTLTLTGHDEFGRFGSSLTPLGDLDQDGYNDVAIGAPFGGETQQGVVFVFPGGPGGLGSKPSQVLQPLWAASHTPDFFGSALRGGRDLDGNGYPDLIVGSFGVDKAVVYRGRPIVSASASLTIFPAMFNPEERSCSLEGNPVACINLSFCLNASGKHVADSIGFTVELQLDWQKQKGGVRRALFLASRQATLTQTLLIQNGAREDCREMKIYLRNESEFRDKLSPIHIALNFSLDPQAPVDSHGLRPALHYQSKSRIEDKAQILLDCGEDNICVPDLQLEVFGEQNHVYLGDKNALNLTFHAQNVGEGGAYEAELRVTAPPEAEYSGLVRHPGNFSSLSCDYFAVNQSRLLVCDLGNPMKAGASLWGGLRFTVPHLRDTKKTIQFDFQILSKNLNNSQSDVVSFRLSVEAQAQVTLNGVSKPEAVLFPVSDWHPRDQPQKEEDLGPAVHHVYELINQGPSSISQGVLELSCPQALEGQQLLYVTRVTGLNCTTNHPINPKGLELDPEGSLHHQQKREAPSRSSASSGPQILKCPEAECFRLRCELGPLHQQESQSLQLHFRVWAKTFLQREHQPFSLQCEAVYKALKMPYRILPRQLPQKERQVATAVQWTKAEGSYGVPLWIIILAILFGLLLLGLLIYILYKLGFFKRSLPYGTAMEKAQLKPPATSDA

No constants are given. Whether binding was seen depends on the method and setting. Some binding calls cover weakened binding; strength is not graded here.

Experiment [1] has as its target αvβ5 integrin (soluble / detergent-solubilized) (UniProt P06756). Description: competition with ^125I-echistatin on plate-coated integrin.
Experiment [2] concerns the target α5β1 integrin (detergent-solubilized) (UniProt P08648). The description is as above.

On to GCTIGRGDWAPSECSQDSDCLAGCVCGPNGFCG (also called RGD-miniprotein 1.5B) [Miniprotein 1.5B (synthetic, soluble)], for which the binding entry in experiment [1] is reported as “binds”.

Turning to GCVTGRGDSPASSCSQDSDCLAGCVCGPNGFCG (also called FN-RGD2; RGD-EETI #3) [Loop-grafted FN-RGD (synthetic, soluble)], the binding entry in experiment [1] is “binds”.

B1: Miniprotein 2.5F (synthetic, soluble) (peptide)
chain: GCPRPRGDNPPLTCSQDSDCLAGCVCGPNGFCG
notes: also called knottin peptide 2.5F; RGD-miniprotein 2.5F
As to B1, the binding result in experiment [1] and in experiment [2] was “binds” in each case.

B2: Miniprotein 2.5D (synthetic, soluble) (peptide)
chain: GCPQGRGDWAPTSCSQDSDCRAGCVCGPNGFCG
notes: also called knottin peptide 2.5D; RGD-miniprotein 2.5D
With B2, the binding entry in experiment [1] was “binds”.
